Measurements from ChEMBL document CHEMBL4619716, “Machine Learning in Mass Spectrometry: A MALDI-TOF MS Approach to Phenotypic Antibacterial Screening” (2020).
Converted amounts (≈) assume the structure as drawn.

System: Escherichia coli
Experiment: Antimicrobial activity against Escherichia coli ATCC 25922 by CLSI and EUCAST protocol based assay
Type: functional

Question: For CN[C@H](CC(C)C)C(=O)N[C@H]1C(=O)N[C@@H](CC(N)=O)C(=O)N[C@H]2C(=O)N[C@H]3C(=O)N[C@H](C(=O)N[C@H](C(=O)O)c4cc(O)cc(O)c4-c4cc3ccc4O)[C@H](O)c3ccc(c(Cl)c3)Oc3cc2cc(c3O[C@@H]2O[C@H](CO)[C@@H](O)[C@H](O)[C@H]2O[C@H]2C[C@](C)(N)[C@H](O)[C@H](C)O2)Oc2ccc(cc2Cl)[C@H]1O [VANCOMYCIN], which MIC is on record?
Answer: 256 µg/mL (≈ 177 µM)
